# Results reported in paper PMC3791872, “Ciprofloxacin is an inhibitor of the Mcm2-7 replicative helicase” (Bioscience Reports, 2013).
# How the values were obtained:
# [1] = system: RPE-hTERT cells; experiment: Human cell viability, MTS method; assay type: cell-based; conditions: RPE-TERT vs ∆erg6 yeast
# Method: Ciproﬂoxacin is an inhibitor of the Mcm2-7 […]
# The viability of human cells was assayed using the MTS method
# [1]. Brieﬂy, 1 ×10^5 cells of the human non-tumour cell line RPE-hTERT were plated into each well of a 96-well plate and grown in DMEM: F12 containing 10 % (v/v) FBS in 5 % (v/v) CO2 at 37 ◦ C. The next day, the indicated compounds were titrated into media such that the ﬁnal concentration contained 1 % (v/v)
# DMSO. As a negative control, media were also prepared that contained 1 % DMSO but lacked compound. After 48 h, the media was removed and replaced with DMEM lacking phenol red but containing Cell Titer 96 Aqueous One Solution Cell Proliferation
# Assay (Promega). After 1 h, the A490 nm was measured using a BioRad iMark Microplate Reader (Hercules). Final data reﬂect the average and standard deviation (S.D.) of three replicates at each compound concentration. […]
# [2] = system: T1, Mcm2-7; experiment: Mcm2-7 helicase (DNA unwinding) assay; assay type: biochemical, Saccharomyces cerevisiae
# T1 construct: made in house; host or cells: baculovirus-infected insect cells
smiles,measurement,setting,value
"O=C(O)c1cn(C2CC2)c2cc(N3CCNCC3)c(F)cc2c1=O [Ciprofloxacin, ciprofloxacin]",fold human cells more sensitive than yeast,[1],~ 2.5 fold
same,fold lower concentration inhibiting Mcm2-7 than Mcm467,[2],approximately 3 fold
same,fold lower concentration inhibiting Mcm2-7 than TAg,[2],approximately 6 fold
